Laboratory results reported in publication PMC6737913.
Read-outs that look alike come from different tables or passages of the source. These are yes or no findings as the source states them, for the method shown. In cells and extracts the contact can be indirect. A yes stands for co-enrichment or nearness to the bait. Other partners may have been found. Tags and fused reporters may be left off the sequences shown. Each block holds one molecule with its values, some of them ahead of it.

The chains behind the UniProt entries cited, without tags or fusion partners. Residues count along the entry.
UniProt P11275: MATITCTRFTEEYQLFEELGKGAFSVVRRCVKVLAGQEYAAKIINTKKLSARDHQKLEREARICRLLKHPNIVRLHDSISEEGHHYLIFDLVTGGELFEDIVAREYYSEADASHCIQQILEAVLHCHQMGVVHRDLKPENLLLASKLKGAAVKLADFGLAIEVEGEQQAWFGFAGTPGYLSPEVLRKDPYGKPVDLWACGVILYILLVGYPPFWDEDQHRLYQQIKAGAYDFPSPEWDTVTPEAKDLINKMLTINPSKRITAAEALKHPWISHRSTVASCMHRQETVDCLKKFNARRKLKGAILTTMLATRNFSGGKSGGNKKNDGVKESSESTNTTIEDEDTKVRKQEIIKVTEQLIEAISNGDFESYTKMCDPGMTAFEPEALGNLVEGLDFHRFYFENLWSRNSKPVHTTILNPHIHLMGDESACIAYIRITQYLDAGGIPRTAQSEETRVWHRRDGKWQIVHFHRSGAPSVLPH
UniProt P08413: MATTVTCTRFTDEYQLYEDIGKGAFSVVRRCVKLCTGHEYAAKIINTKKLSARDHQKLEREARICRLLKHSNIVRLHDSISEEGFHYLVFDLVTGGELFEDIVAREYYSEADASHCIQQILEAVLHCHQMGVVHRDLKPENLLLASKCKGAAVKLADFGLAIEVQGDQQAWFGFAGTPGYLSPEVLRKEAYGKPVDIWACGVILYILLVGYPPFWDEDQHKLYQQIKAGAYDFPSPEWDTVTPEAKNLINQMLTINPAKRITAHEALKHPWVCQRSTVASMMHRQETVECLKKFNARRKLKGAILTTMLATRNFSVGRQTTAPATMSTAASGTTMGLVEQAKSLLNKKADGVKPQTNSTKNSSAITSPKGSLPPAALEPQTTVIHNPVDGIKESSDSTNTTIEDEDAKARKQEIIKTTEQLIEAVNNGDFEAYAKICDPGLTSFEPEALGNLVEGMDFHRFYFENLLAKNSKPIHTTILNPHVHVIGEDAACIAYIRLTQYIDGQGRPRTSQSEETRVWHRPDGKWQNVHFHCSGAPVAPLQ
UniProt Q9QXQ0: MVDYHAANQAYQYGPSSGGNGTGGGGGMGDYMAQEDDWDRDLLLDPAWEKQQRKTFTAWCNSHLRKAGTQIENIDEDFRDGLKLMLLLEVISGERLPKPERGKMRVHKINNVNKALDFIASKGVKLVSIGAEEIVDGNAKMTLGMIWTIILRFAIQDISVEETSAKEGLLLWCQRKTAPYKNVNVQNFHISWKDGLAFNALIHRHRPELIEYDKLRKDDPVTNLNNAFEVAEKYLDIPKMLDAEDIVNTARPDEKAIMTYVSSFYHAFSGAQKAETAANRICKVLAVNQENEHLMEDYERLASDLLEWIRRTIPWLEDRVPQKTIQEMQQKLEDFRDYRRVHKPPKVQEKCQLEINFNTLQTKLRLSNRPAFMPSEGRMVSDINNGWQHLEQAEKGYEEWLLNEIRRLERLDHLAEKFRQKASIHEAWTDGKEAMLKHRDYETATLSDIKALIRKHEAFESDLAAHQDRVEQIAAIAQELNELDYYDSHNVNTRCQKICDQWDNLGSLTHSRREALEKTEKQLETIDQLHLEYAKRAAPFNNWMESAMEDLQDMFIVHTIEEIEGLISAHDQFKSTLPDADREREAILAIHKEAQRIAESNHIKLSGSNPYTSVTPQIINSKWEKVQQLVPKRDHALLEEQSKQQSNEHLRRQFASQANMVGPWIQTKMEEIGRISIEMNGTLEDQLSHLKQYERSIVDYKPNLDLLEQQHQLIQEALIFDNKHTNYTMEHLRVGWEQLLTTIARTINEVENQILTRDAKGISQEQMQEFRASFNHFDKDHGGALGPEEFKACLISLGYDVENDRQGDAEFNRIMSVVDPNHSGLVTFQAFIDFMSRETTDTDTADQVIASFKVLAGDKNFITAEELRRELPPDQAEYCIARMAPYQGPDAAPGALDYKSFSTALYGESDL
UniProt Q68FP1, residues 26-780: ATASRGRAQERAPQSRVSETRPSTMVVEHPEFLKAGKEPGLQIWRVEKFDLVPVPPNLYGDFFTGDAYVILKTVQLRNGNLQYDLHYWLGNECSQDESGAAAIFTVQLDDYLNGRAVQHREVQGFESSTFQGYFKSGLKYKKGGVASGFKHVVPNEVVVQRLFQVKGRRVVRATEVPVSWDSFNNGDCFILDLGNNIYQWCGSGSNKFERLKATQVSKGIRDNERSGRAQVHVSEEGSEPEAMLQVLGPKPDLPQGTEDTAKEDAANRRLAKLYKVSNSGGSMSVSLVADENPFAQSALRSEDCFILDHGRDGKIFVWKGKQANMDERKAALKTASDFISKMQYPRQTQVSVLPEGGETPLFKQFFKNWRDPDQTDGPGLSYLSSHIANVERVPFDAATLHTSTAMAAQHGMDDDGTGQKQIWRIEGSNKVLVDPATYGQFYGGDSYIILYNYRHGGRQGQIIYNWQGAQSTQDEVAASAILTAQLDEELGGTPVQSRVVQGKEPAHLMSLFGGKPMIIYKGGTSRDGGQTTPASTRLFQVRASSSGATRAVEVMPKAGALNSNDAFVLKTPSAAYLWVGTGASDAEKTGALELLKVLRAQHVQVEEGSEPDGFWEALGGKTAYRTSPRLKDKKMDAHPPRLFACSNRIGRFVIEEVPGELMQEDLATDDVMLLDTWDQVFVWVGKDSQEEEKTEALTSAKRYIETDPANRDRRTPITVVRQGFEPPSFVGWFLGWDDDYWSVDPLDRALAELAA
UniProt Q9QYF3: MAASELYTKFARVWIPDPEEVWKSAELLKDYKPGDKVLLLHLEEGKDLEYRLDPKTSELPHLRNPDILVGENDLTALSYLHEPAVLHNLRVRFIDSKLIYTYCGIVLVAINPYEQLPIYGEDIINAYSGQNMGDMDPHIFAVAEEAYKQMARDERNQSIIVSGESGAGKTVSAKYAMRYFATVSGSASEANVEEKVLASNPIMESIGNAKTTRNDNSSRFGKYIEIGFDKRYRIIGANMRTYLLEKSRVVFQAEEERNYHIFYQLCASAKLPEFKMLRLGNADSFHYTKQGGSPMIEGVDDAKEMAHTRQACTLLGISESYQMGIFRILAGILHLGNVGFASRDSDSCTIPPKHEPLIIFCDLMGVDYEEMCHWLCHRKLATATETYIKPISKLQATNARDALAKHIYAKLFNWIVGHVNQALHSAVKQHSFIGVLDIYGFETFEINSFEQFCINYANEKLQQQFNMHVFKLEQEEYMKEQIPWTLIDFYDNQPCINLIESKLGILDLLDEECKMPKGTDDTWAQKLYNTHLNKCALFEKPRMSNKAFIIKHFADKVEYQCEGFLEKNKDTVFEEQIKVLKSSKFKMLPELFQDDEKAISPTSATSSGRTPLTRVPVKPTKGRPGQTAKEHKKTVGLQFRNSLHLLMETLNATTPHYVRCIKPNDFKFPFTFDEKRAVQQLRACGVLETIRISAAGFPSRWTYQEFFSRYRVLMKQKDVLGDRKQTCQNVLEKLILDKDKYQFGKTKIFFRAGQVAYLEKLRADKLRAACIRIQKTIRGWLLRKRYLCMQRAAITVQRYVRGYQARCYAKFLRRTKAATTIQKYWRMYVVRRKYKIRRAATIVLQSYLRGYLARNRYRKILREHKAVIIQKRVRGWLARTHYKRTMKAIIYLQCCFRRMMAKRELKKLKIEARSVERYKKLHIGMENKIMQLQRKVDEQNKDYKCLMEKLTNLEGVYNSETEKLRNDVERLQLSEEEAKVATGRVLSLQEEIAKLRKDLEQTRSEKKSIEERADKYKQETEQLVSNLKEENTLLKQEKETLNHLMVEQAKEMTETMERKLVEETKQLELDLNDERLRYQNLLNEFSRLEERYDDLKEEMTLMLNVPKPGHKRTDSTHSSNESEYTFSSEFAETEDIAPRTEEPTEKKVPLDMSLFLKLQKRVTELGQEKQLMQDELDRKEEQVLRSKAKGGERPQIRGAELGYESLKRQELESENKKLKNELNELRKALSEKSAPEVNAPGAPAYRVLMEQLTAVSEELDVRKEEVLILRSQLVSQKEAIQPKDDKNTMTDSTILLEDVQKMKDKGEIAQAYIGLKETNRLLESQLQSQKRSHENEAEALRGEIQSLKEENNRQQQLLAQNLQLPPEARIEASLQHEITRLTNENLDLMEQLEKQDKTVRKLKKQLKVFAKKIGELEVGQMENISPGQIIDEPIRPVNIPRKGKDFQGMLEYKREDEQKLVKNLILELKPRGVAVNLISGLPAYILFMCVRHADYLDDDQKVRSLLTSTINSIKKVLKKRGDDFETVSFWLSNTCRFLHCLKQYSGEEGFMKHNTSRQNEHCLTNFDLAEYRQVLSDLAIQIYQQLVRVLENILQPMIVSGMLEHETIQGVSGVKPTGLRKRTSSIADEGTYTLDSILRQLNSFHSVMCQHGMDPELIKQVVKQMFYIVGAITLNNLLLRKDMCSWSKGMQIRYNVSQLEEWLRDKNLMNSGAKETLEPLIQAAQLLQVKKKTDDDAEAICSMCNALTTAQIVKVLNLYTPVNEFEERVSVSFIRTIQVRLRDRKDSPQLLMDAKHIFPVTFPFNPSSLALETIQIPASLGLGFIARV
UniProt P70569: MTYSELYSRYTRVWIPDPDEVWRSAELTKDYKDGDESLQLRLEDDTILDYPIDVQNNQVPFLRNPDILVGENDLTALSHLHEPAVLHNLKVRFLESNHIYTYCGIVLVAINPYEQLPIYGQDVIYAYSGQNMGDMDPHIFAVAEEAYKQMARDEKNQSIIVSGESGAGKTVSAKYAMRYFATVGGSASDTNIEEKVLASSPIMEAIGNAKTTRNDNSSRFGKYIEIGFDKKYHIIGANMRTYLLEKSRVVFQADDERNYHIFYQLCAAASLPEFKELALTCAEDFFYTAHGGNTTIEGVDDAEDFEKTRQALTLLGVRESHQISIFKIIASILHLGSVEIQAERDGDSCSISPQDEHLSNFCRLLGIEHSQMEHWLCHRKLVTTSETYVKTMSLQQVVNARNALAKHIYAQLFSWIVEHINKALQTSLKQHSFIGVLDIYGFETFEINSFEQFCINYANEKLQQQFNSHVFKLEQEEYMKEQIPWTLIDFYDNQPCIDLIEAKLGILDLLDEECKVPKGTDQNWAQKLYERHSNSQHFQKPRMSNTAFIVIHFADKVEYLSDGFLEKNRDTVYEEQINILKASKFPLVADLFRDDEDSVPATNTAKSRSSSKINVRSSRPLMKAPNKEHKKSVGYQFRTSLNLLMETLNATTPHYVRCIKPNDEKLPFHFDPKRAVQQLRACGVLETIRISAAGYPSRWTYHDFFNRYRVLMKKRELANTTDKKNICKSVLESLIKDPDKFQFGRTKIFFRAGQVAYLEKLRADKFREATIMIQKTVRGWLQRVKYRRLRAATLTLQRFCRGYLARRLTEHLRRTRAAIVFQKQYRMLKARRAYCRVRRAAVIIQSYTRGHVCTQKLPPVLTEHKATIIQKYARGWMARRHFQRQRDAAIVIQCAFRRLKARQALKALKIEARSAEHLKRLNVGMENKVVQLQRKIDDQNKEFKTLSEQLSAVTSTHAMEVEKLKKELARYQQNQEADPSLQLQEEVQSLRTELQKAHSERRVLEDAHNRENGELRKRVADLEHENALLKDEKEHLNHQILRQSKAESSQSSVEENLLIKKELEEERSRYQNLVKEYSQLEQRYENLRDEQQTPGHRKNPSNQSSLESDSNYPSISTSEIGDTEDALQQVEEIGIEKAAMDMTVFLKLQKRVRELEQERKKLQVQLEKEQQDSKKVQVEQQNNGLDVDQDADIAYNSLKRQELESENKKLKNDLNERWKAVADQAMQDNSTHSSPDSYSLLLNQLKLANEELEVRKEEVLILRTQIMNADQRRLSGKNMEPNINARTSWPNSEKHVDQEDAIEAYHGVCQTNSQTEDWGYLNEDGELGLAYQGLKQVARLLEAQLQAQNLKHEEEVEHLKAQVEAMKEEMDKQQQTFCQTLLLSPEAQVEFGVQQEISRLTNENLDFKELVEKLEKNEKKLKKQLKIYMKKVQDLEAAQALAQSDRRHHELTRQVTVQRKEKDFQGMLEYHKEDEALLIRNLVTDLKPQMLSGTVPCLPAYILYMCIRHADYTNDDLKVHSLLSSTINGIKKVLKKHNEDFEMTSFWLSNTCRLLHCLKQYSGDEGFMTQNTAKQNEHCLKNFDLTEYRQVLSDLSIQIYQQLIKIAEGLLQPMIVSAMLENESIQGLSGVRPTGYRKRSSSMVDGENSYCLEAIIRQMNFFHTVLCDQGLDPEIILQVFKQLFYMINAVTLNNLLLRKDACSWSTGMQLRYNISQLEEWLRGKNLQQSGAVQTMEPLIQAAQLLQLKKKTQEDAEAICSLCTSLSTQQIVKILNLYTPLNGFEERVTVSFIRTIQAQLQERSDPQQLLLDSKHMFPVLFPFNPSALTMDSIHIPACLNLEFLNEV

Experiments:
[1] = biological target: T1, bio-GFP–synaptopodin (biotinylated GFP–synaptopodin) (mouse) (UniProt Q8CC35); assay: affinity purification with mass spectrometry; bio-GFP–synaptopodin (or bio-GFP control) from HEK293T lysate held on Streptavidin Dynabeads, washed (100/500 mM KCl), incubated with 1 ml cleared rat brain lysate for 1 h at 4°C, washed five times (20 mM Tris-HCl pH 8, 150 mM KCl, 0.1% Triton X-100); SDS-PAGE, in-gel digestion, LC-MS/MS; only the target purified
T1 sequence (chain, biotin (biotinylated; co-expressed with HA–BirA)): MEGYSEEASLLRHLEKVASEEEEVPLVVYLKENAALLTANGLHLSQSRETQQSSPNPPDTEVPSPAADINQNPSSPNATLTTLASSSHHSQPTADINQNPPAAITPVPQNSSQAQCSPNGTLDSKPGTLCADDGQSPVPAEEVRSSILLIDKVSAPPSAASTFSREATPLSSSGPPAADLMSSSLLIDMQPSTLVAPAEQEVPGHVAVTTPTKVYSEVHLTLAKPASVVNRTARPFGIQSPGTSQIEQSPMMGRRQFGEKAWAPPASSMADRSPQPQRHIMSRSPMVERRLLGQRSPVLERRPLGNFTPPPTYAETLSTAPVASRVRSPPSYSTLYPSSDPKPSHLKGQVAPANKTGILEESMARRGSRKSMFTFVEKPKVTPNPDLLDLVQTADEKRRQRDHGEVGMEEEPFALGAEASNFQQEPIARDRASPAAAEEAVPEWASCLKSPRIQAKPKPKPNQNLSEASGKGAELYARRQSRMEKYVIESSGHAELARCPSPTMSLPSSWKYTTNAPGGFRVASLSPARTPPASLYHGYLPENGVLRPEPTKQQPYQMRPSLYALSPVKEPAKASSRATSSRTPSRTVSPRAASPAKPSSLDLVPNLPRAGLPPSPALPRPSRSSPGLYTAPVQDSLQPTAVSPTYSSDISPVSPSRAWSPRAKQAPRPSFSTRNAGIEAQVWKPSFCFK

[2] = biological target: T1, bio-GFP–synaptopodin (biotinylated GFP–synaptopodin) (mouse); assay: as above; remark: listed apart in the source

- binding [1]: binds
Molecule: CamKIIα (endogenous, rat brain) (from UniProt P11275 1-478) (enzyme)

- binding [1]: binds
Molecule: CamKIIβ (endogenous, rat brain) (from UniProt P08413 1-542) (enzyme)

- binding [1]: binds
Molecule: F-actin-capping protein Capza2 (endogenous, rat brain) (from UniProt Q3T1K5 1-286)

- binding [1]: binds
Molecule: actinin (Actn2) (endogenous, rat brain)

- binding [1]: binds
Molecule: actinin (Actn4) (endogenous, rat brain) (from UniProt Q9QXQ0 1-911)

- binding [1]: binds
Molecule: coronin Coro2a (endogenous, rat brain)

- binding [1]: binds
Molecule: gelsolin (Gsn) (endogenous, rat brain) (from UniProt Q68FP1 26-780)

- binding [1]: binds
Molecule: myosin Id (endogenous, rat brain) (from UniProt Q63357 1-1006)

- binding [1]: binds
Molecule: myosin Va (endogenous, rat brain) (from UniProt Q9QYF3 1-1828)

- binding [1]: binds
Molecule: myosin Vb (endogenous, rat brain) (from UniProt P70569 1-1846)

- binding [1]: binds
Molecule: tropomodulin Tmod3 (endogenous, rat brain)

- binding [2]: binds
B1: coronin Coro2b (endogenous, rat brain) (protein, UniProt F1LMV9 1-480)
chain: MTVTKMSWRPQYRSSKFRNVYGKVANREHCFDGIPITKNVHDNHFCAVNARFLAIVTESAGGGSFLVIPLEQTGRIEPNYPKVCGHQGNVLDIKWNPFIDNIIASCSEDTSVRIWEIPEGGLKRNMTEALLELHGHSRRVGLVEWHPTTNNILFSAGYDYKVLIWNLDIGEPVKMIDCHTDVILCMSFNTDGSLLTTTCKDKKLRVIEPRSGRVLQEANCKNHRVNRVVFLGNMKRLLTTGVSRWNTRQIALWDQEDLSMPMIEEEIDGLSGLLFPFYDADTHMLYLAGKGDGNIRYYEISTEKPYLSYLMEFRSPAPQKGLGVMPKHGLDVSACEVFRFYKLVTLKGLIEPISMIVPRRSDSYQEDIYPMTPGTEPALTPDEWLGGVNRDPVLMSLKEGYKKSSKVVFKAPIREKKSVVVNGIDLLENVPPRTENELLRMFFRQQDEIRRLKEELAQKDIRLRQLQLELKNLRNNPKNC

- binding [2]: binds
B2: tropomodulin Tmod2 (endogenous, rat brain) (protein, UniProt P70566 1-351)
chain: MALPFQKGLEKYKNIDEDELLGKLSEEELKQLENVLDDLDPESATLPAGFRQKDQTQKAATGPFDREHLLMYLEKEALEQKDREDFVPFTGEKKGRVFIPKEKPVETRKEEKVTLDPELEEALASASDTELYDLAAVLGVHNLLNNPKFDEETTNGQGRKGPVRNVVKGEKAKPVFEEPPNPTNVEASLQQMKANDPSLQEVNLNNIKNIPIPTLKEFAKALETNTHVRKFSLAATRSNDPVALAFAEMLKVNKTLKSLNVESNFITGAGILALVEALRENDTLTEIKIDNQRQQLGTAVEMEIAQMLEENSRILKFGYQFTKQGPRTRVAAAITKNNDLVRKKRVEGDRR
